Measurements as given in PMC12528419.
Results are given in words; binding and its absence hold for the method and conditions named. In cells and extracts the contact can be indirect. Binding calls can cover weak binding; strength is not graded here. Where a sequence is shown, tags or fusion partners need not be part of it.

These binders were tested against GST-SRs 31-37 (spectrin repeats 31-37 of human Nesprin-2 fused to GST) (human) (assay: pull-down; 1 mg cell lysate incubated with 1 μg GST protein on glutathione-agarose beads for 4 h at 4 °C; washed three times with immunoprecipitation/kinase buffer (50 mM Hepes pH 7.5, 150 mM NaCl, 1 mM EDTA, 2.5 mM EGTA, 10% glycerol, 0.1% Tween 20); SDS PAGE and Western blotting; only the target purified).

Binder	binding
GFP:PDZ(DH/PH) (amino acids 702-1152 of human PDZ RhoGEF fused to GFP) (domain or fragment, UniProt O15085 702-1152) GQLSDLEPEPDAQNWQHTVGKDVVAGLTQREIDRQEVINELFVTEASHLRTLRVLDLIFYQRMKKENLMPREELARLFPNLPELIEIHNSWCEAMKKLREEGPIIKEISDLMLARFDGPAREELQQVAAQFCSYQSIALELIKTKQRKESRFQLFMQEAESHPQCRRLQLRDLIISEMQRLTKYPLLLESIIKHTEGGTSEHEKLCRARDQCREILKYVNEAVKQTENRHRLEGYQKRLDATALERASNPLAAEFKSLDLTTRKMIHEGPLTWRISKDKTLDLHVLLLEDLLVLLQKQDEKLLLKCHSKTAVGSSDSKQTFSPVLKLNAVLIRSVATDKRAFFIICTSKLGPPQIYELVALTSSDKNTWMELLEEAVRNATRHPGAAPMPVHPPPPGPREPAQQGPTPSRVELDDSDVFHGEPEPEELPGGTGSQQRVQGKHQVLLEDPEQ	binds
GFP:PDZ^dom (amino acids 1-219 of human PDZ RhoGEF fused to GFP) (domain or fragment, UniProt O15085 1-219) MSVRLPQSIDRLSSLSSLGDSAPERKSPSHHRQPSDASETTGLVQRCVIIQKDQHGFGFTVSGDRIVLVQSVRPGGAAMKAGVKEGDRIIKVNGTMVTNSSHLEVVKLIKSGAYVALTLLGSSPSSMGISGLQQDPSPAGAPRITSVIPSPPPPPPLPPPQRITGPKPLQDPEVQKHATQILRNMLRQEEKELQDILPLYGDTSQRPSEGRLSLDSQEG	no binding (tested: 1 mg cell lysate with 1 μg GST protein)
GFP:PDZ(C-term) (amino acids 1168-1522 of human PDZ RhoGEF fused to GFP) (domain or fragment, UniProt O15085 1168-1522) STSLDGENRGIRTRNPIHLAFPGPLFMEGLADSALEDVENLRHLILWSLLPGHTMETQAAQEPEDDLTPTPSVISVTSHPWDPGSPGQAPPGGEGDNTQLAGLEGERPEQEDMGLCSLEHLPPRTRNSGIWESPELDRNLAEDASSTEAAGGYKVVRKAEVAGSKVVPALPESGQSEPGPPEVEGGTKATGNCFYVSMPSGPPDSSTDHSEAPMSPPQPDSLPAGQTEPQPQLQGGNDDPRRPSRSPPSLALRDVGMIFHTIEQLTLKLNRLKDMELAHRELLKSLGGESSGGTTPVGSFHTEAARWTDGSLSPPAKEPLASDSRNSHELGPCPEDGSDAPLEDSTADAAASPGP	no binding (tested: 1 mg cell lysate with 1 μg GST protein)
